Patent US20170114333
Where a protein sequence is shown, tags need not be part of it.

Test system: T1, Hermes transposase wild type (1-612) (Musca domestica)
T1 sequence: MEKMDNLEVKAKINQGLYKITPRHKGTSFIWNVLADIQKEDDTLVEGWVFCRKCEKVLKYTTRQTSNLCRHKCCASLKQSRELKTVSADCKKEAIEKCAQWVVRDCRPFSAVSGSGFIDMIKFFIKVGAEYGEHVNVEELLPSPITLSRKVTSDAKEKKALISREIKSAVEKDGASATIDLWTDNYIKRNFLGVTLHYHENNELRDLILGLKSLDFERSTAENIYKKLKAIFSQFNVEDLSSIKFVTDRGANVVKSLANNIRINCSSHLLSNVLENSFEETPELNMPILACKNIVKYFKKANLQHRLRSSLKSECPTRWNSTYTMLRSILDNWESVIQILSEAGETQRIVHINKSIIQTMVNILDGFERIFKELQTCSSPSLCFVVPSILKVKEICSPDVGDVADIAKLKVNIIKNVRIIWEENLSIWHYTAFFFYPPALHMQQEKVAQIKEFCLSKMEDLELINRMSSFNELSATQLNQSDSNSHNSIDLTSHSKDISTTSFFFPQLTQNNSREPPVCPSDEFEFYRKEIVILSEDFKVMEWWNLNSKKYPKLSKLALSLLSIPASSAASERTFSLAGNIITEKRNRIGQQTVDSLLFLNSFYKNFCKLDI
Assay: enzyme reaction in vitro
Settings: 5'-phosphate on top strand; strand transfer into pUC19, 5 mM MgCl2, 0-300 mM KCl titration, 30 C; purified recombinant protein

Sequence: TCAGAGAACAACAACAAGTGGCTTATTTTGA / TCAAAATAAGCCACTTGTTGTTGTTCTCTG [Hermes pre-cleaved L-end]
- activity on this sequence: active
